Laboratory results as given in PMC4869170.

The chains behind the UniProt entries cited, without tags or fusion partners.
UniProt Q8WVS4: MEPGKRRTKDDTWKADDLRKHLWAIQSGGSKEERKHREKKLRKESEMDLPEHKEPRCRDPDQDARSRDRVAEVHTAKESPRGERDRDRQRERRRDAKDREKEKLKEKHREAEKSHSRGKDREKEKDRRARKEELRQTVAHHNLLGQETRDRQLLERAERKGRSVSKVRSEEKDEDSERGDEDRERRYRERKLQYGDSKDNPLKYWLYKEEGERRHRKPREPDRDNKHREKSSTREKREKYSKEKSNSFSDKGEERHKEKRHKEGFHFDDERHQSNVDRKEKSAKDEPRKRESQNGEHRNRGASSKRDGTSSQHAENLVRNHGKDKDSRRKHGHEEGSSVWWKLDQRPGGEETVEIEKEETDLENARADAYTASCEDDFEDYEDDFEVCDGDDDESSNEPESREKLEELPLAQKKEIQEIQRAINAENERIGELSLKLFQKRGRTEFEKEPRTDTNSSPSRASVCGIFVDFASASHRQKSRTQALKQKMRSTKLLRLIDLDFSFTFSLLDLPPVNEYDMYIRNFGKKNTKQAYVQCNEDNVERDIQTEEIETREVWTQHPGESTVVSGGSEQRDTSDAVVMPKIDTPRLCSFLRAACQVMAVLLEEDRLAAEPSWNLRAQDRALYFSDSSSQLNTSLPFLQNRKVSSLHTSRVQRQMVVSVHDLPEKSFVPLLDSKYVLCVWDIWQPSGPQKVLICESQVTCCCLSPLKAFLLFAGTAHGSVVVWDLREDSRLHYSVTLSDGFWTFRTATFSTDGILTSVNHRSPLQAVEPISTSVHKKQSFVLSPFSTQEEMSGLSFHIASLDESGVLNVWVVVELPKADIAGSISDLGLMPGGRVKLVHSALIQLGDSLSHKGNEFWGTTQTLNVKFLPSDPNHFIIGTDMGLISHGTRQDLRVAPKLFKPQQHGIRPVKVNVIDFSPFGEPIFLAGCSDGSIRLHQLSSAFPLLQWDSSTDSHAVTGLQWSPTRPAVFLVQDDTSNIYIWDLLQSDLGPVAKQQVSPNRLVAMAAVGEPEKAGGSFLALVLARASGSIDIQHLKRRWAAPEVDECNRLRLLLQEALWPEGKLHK
UniProt Q9Y266: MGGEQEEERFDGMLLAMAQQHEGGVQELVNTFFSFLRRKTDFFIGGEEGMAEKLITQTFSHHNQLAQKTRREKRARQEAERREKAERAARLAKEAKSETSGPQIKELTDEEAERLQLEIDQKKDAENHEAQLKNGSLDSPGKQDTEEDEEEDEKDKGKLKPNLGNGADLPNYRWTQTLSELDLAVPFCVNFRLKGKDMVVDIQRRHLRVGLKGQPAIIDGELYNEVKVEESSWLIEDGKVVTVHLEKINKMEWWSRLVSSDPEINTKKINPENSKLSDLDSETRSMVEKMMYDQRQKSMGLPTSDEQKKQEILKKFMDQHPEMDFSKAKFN

Assays:
Experiment in all cases: affinity purification with mass spectrometry; SF-TAP-tagged bait overexpressed in HEK293T; lysis in 0.5% NP-40 in TBS (30 mM Tris-HCl pH 7.4, 150 mM NaCl); two steps at 4 °C: Strep-Tactin superflow (desthiobiotin elution), then anti-FLAG M2 agarose (FLAG peptide elution); LC-MS/MS; interactions scored by socioaffinity
[1] = biological target: T1, DNAI2 (human) (UniProt Q9GZS0)
T1 sequence: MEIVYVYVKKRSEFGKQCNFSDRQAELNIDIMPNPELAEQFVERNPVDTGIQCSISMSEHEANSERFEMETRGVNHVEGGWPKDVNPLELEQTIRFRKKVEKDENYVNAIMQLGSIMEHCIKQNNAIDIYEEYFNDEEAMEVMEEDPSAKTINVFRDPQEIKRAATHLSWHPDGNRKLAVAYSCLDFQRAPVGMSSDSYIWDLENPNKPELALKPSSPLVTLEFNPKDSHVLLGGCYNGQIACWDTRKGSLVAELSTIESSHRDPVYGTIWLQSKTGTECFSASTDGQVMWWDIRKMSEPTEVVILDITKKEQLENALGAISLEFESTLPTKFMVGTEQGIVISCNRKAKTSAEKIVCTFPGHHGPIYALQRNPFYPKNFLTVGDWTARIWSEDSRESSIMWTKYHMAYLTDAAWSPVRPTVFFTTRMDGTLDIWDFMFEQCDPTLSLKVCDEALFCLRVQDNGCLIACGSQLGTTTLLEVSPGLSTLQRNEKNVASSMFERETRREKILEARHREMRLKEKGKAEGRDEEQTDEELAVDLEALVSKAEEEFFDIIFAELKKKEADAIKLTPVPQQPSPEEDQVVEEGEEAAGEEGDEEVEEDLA

[2] = biological target: WDR60 (human) (UniProt Q8WVS4)
[3] = biological target: T2, IFT80 (human) (UniProt Q9P2H3)
T2 sequence: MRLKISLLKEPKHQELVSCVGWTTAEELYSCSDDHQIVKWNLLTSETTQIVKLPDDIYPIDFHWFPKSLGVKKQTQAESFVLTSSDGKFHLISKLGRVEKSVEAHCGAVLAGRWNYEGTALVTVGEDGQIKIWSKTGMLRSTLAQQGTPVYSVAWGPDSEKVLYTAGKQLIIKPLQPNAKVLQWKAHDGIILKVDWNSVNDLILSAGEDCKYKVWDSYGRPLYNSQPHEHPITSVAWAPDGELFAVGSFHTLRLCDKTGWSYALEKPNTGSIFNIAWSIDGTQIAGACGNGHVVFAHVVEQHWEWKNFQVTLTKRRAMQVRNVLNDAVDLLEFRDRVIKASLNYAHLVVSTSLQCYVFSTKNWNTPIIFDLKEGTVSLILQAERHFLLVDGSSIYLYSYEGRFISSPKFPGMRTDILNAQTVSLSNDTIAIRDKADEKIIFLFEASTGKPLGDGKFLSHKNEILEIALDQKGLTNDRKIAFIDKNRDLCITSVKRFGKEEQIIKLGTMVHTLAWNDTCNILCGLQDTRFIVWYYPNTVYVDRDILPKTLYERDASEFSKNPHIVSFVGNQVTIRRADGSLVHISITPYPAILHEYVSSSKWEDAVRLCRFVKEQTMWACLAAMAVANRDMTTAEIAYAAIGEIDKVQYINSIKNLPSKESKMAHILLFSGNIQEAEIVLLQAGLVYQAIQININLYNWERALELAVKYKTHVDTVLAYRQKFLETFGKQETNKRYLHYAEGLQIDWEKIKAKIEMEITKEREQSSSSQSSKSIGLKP

binding [1]: no binding | binding [2]: binds | binding [3]: binds
Substance: NUDC (from UniProt Q9Y266 1-331)

These are yes or no findings as the source states them, for the method shown. In cells and extracts the contact can be indirect. These calls come from enrichment with a bait or labelling near it, and not all partners need be listed. For part of these data: A no says only that the protein was not detected with the bait.
